Source: publication PMC6316800
These are yes or no findings as the source states them, for the method shown. Binding seen in cells or lysates may run through a third protein. These calls come from enrichment with a bait or labelling near it, and not all partners need be listed.

By UniProt entry, the sequences of proteins in these tests, tags left out.
UniProt Q8TDD1: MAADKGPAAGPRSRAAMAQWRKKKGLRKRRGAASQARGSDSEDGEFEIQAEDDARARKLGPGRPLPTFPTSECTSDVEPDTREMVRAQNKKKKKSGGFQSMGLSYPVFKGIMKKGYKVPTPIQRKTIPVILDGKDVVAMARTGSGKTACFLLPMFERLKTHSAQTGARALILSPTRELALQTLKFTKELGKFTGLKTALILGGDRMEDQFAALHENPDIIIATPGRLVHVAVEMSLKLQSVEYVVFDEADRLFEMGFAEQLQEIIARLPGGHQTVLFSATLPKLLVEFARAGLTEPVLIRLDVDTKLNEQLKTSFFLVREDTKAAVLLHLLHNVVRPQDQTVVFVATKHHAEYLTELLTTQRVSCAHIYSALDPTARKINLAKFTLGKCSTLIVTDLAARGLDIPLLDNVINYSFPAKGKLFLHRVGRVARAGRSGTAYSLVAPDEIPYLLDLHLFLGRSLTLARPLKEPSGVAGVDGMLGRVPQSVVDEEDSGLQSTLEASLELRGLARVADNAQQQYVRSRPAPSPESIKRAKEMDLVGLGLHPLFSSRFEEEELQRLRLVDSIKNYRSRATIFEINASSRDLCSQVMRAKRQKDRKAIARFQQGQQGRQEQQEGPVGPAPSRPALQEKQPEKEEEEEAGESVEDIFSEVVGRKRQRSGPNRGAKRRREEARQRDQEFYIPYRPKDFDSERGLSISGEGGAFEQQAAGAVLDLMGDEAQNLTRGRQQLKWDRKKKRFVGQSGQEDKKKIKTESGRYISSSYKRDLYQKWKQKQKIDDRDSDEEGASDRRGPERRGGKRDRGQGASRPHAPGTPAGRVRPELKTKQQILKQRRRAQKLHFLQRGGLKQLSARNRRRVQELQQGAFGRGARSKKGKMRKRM
UniProt Q7Z7K6: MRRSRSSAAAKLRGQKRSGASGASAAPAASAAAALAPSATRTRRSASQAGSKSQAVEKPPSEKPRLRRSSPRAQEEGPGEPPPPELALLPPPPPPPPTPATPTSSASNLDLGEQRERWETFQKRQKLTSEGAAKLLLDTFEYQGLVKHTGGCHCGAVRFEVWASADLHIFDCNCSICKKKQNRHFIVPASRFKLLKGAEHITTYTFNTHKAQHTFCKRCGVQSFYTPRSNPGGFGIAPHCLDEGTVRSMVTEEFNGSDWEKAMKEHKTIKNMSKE
UniProt P54652: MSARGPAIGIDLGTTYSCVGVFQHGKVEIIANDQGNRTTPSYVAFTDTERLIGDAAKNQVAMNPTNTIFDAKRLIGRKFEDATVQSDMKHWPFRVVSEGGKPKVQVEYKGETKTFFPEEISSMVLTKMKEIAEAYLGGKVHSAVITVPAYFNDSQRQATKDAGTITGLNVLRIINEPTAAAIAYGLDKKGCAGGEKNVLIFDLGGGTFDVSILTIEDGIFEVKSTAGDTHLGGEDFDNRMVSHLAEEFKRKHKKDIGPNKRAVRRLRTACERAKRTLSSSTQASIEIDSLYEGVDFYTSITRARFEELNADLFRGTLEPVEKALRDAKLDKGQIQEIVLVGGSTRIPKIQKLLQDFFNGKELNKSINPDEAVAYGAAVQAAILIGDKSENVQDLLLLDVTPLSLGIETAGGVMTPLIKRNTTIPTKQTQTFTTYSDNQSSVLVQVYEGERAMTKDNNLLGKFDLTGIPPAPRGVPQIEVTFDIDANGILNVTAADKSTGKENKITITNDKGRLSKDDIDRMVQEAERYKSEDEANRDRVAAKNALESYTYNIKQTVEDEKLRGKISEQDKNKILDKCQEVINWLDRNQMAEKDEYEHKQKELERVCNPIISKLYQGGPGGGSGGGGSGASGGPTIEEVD
UniProt Q99729: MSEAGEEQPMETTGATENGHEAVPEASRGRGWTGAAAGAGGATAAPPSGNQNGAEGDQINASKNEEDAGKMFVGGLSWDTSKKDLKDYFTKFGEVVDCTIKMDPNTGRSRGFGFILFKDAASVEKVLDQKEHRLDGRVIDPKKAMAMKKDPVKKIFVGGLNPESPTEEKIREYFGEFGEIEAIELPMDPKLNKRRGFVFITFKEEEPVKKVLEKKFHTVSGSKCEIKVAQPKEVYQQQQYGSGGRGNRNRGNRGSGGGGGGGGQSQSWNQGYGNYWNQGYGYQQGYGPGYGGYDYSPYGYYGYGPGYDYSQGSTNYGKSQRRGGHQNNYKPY
UniProt Q92522: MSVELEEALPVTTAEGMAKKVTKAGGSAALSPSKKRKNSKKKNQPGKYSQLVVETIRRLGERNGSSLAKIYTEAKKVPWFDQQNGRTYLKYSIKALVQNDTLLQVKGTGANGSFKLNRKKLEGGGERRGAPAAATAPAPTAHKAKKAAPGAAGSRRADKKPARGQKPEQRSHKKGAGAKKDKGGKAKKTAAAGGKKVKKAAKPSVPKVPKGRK
UniProt P60903: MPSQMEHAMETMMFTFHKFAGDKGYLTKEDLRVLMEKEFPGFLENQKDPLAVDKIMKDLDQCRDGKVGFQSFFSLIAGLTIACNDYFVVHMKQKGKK
UniProt Q58FF8: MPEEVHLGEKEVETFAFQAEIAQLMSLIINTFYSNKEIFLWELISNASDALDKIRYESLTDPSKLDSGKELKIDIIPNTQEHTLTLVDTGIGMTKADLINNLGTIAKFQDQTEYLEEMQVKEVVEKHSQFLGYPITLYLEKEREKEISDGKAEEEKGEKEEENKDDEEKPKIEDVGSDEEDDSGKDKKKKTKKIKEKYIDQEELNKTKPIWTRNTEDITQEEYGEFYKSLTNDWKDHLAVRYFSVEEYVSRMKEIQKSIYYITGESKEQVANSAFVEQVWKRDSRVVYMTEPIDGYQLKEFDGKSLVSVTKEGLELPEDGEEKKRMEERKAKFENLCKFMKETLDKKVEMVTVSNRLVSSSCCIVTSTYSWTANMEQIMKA
UniProt Q14692: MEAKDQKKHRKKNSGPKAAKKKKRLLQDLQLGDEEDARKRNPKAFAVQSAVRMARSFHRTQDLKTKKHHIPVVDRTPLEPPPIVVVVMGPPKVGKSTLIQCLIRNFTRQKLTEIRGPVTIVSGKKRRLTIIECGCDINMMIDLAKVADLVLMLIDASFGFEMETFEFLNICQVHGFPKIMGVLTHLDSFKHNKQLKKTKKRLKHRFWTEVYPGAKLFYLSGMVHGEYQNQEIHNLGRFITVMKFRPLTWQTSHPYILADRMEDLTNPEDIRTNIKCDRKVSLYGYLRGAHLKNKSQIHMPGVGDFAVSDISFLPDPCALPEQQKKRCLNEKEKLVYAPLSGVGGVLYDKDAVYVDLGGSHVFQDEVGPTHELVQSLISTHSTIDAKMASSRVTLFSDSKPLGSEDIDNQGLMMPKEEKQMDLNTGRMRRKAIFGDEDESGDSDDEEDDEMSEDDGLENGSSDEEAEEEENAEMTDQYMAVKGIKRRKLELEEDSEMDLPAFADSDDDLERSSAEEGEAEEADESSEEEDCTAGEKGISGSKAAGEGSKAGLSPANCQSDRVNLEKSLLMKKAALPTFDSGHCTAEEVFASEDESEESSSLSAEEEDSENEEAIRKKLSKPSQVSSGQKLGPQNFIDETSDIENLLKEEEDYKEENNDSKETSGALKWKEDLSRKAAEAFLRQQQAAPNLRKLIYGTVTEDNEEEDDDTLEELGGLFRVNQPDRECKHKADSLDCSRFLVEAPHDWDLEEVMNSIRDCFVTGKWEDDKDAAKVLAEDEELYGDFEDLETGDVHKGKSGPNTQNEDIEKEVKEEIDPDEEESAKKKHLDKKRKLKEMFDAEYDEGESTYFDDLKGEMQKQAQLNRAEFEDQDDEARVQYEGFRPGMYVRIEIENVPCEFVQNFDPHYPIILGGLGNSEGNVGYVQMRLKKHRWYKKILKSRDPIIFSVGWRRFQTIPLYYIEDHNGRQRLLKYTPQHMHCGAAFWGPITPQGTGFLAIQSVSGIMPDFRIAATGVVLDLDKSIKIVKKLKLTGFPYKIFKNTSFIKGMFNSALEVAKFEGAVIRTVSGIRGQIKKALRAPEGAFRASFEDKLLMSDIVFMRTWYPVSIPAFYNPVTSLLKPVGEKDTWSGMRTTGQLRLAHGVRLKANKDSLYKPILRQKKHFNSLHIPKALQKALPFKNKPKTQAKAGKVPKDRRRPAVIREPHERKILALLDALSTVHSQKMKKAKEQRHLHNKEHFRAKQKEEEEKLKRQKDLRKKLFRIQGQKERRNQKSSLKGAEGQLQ
UniProt Q9NWH9: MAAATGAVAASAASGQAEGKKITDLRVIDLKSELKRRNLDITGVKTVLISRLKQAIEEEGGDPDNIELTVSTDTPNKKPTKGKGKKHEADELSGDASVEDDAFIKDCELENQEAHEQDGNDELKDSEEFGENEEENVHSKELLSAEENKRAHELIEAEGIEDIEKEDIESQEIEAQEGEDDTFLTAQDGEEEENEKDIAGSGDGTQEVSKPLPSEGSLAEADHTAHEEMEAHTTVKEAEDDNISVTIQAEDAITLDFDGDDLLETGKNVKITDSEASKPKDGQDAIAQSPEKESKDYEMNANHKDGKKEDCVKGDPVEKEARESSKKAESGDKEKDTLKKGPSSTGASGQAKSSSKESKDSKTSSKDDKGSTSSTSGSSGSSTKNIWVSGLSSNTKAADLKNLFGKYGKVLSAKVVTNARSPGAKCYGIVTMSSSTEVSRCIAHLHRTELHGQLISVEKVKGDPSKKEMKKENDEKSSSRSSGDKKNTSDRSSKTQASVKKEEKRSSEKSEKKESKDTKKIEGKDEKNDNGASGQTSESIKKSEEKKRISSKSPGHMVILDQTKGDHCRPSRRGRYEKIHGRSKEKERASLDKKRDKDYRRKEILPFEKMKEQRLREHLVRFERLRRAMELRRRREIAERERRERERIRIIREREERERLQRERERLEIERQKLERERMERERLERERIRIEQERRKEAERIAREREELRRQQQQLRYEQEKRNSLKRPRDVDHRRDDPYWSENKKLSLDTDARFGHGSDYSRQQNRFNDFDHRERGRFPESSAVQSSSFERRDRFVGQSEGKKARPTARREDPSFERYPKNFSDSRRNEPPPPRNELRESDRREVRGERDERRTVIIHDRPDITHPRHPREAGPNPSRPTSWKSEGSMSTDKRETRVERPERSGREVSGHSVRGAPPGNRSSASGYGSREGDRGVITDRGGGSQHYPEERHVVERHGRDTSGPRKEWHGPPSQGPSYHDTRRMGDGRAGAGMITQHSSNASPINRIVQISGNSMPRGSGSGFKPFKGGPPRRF
UniProt Q13148: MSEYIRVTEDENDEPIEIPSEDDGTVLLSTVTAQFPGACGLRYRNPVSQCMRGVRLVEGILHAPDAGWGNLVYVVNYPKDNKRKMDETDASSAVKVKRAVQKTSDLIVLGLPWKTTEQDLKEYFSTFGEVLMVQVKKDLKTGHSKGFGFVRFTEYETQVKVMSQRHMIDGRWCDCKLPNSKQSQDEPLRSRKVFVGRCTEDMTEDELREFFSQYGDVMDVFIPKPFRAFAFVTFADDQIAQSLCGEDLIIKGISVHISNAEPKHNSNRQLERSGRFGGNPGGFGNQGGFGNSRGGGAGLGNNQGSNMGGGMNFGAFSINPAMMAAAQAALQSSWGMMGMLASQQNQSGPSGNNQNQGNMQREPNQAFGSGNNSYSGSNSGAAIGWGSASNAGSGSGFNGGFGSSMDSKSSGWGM
UniProt Q7Z2W4: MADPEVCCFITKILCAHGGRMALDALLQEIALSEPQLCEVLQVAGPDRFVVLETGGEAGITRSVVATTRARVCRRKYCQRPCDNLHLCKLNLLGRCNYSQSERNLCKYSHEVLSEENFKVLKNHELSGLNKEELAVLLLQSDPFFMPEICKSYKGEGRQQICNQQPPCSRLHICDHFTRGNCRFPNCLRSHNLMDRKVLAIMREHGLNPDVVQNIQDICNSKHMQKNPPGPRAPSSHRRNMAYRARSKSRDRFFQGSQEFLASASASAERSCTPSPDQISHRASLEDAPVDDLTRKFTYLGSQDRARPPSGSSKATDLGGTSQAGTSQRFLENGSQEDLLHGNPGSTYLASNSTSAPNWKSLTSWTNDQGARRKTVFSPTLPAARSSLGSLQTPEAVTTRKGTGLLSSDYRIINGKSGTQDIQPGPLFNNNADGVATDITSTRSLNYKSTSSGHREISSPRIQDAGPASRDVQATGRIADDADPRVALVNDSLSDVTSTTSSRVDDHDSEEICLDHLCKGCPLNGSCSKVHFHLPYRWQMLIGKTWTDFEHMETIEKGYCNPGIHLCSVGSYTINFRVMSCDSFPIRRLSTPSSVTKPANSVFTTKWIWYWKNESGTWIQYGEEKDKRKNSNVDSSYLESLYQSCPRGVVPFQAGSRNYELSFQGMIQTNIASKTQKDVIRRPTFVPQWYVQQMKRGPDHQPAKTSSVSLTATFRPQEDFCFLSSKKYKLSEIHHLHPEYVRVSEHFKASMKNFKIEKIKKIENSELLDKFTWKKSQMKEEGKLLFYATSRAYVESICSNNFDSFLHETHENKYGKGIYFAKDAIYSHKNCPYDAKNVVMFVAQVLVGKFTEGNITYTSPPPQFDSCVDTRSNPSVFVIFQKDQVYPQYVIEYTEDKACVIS

These substances were tested against Influenza A virus non-structural protein 1 (NS1), strain A/Puerto Rico/8/1934(H1N1) (Influenza A virus A/Puerto Rico/8/1934(H1N1)) (UniProt P03496) (assay: affinity purification with mass spectrometry).

Substance | binding
ATP-dependent RNA helicase DDX3X (from UniProt O00571 1-662) | binds
ATP-dependent RNA helicase DDX54 (from UniProt Q8TDD1 1-881) | binds
Centromere protein V (from UniProt Q7Z7K6 1-275) | binds
Core histone macro-H2A.1 (from UniProt O75367 1-369) | binds
DNA-dependent protein kinase catalytic subunit (from UniProt P78527 1-4128) | binds
Double-stranded RNA-binding protein Staufen homolog 1 (from UniProt O95793 1-577) | binds
E3 ubiquitin/ISG15 ligase TRIM25 (from UniProt Q14258 1-630) | binds
ELAV-like protein 1 (from UniProt Q15717 1-326) | binds
Far upstream element-binding protein 3 (from UniProt Q96I24 1-572) | binds
Fragile X mental retardation syndrome-related protein 1 (from UniProt P51114 1-621) | binds
HEAT repeat-containing protein 1 (from UniProt Q9H583 1-2144) | binds
Heat shock 70 kDa protein 1A/1B (from UniProt P0DMV8 1-641) | binds
Heat shock protein beta-1 (from UniProt P04792 1-205) | binds
Heat shock-related 70 kDa protein 2 (from UniProt P54652 1-639) | binds
Heterochromatin protein 1-binding protein 3 (from UniProt Q5SSJ5 1-553) | binds
Heterogeneous nuclear ribonucleoprotein A/B (from UniProt Q99729 1-332) | binds
Heterogeneous nuclear ribonucleoprotein G (from UniProt P38159 1-391) | binds
Heterogeneous nuclear ribonucleoprotein H (from UniProt P31943 1-449) | binds
Heterogeneous nuclear ribonucleoprotein Q (from UniProt O60506 1-623) | binds
Histone H1.0 (from UniProt P07305 1-194) | binds

Substance | binding
Histone H1.5 (from UniProt P16401 1-226) | binds
Histone H1x (from UniProt Q92522 1-213) | binds
Insulin-like growth factor 2 mRNA-binding protein 3 (from UniProt O00425 1-579) | binds
Interleukin enhancer-binding factor 2 (from UniProt Q12905 1-390) | binds
Isoform D of Protein SON (from UniProt P18583-5 1-2459) | binds
Keratin, type II cytoskeletal 6C (from UniProt P48668 1-564) | binds
Lamin-A/C (from UniProt P02545 1-646) | binds
MKI67 FHA domain-interacting nucleolar phosphoprotein (from UniProt Q9BYG3 1-293) | binds
Nuclear mitotic apparatus protein 1 (from UniProt Q14980 1-2115) | binds
Nucleolar GTP-binding protein 2 (from UniProt Q13823 1-731) | binds
Nucleolar RNA helicase 2 (from UniProt Q9NR30 1-783) | binds
Nucleolar protein 56 (from UniProt O00567 1-594) | binds
PR8 nucleoprotein (NP) (from UniProt P03466 1-498) | binds
PR8 viral matrix protein 1 (M1) (from UniProt P03485 1-252) | binds
Poly(rC)-binding protein 1 (from UniProt Q15365 1-356) | binds
Polypyrimidine tract-binding protein 1 (from UniProt P26599 1-557) | binds
Probable ATP-dependent RNA helicase DDX5 (from UniProt P17844 1-614) | binds
Probable ATP-dependent RNA helicase DDX10 (from UniProt Q13206 1-875) | binds
Probable ATP-dependent RNA helicase DDX17 (from UniProt Q92841 1-729) | binds
Protein MAK16 homolog (from UniProt Q9BXY0 1-300) | binds

Substance | binding
Protein RRP5 homolog (from UniProt Q14690 1-1871) | binds
Protein S100-A10 (from UniProt P60903 1-97) | binds
Putative heat shock protein HSP 90-beta 2 (from UniProt Q58FF8 1-381) | binds
Putative pre-mRNA-splicing factor ATP-dependent RNA helicase DHX15 (from UniProt O43143 1-795) | binds
RNA-binding protein FUS (from UniProt P35637 1-526) | binds
RNA-binding protein Raly (from UniProt Q9UKM9 1-306) | binds
Regulator of differentiation 1 (from UniProt O95758 1-552) | binds
Ribosome biogenesis protein BMS1 homolog (from UniProt Q14692 1-1282) | binds
Ribosome biogenesis protein BOP1 (from UniProt Q14137 1-746) | binds
SAFB-like transcription modulator (from UniProt Q9NWH9 1-1034) | binds
SWI/SNF-related matrix-associated actin-dependent regulator of chromatin subfamily A member 5 (from UniProt O60264 1-1052) | binds
Sequestosome-1 (from UniProt Q13501 1-440) | binds
Serine/threonine-protein kinase PRP4 homolog (from UniProt Q13523 1-1007) | binds
TAR DNA-binding protein 43 (from UniProt Q13148 1-414) | binds
U5 small nuclear ribonucleoprotein 200 kDa helicase (from UniProt O75643 1-2136) | binds
Voltage-dependent anion-selective channel protein 1 (from UniProt P21796 1-283) | binds
Zinc finger CCCH-type antiviral protein 1 (from UniProt Q7Z2W4 1-902) | binds
Zinc finger RNA-binding protein (from UniProt Q96KR1 1-1074) | binds
